According to patent US8877758B2, “Combinations of medicaments, containing PDE4-inhibitors and EP4-receptor-antagonists” (Boehringer Ingelheim International GmbH, priority 2010, dated 2014):

Tested on: male Wistar rats
Experiment: Experiment 2: four-day oral treatment of rats, roflumilast-mediated effects with or without SC-560 or Lumiracoxib
Type: in vivo, rat
Settings: four days
From the text: For pharmacokinetic analysis (determining plasma levels of the substances) one rat from each group was used on day 4; these rats were no longer available for the investigation of other parameters.
The average value±standard deviation in the body weights at time t0 was 306±11 g.

[1] = 2 mg/kg p.o. at 0800 and 1700 hours + 10 mg/kg Roflumilast at 1300 hours

COc1ccc(-n2nc(C(F)(F)F)cc2-c2ccc(Cl)cc2)cc1 [SC-560]
effect of co-administration on roflumilast-mediated loss of body weight (FIG. 5) [1]: no protective effect
effect of co-administration on roflumilast-mediated loss of spleen weight (FIG. 6) [1]: no protective effect
effect of co-administration on roflumilast-mediated mesenteric vasculitis (monocyte/polymorphonuclear perivascular infiltration, FIG. 8) [1]: no protective effect
effect of co-administration on roflumilast-mediated neutrophilia (FIG. 7) [1]: no protective effect
parameters measured after administration on its own (body weight, spleen weight, neutrophils, mesenteric vasculitis) (2 mg/kg p.o. at 0800 and 1700 hours, no roflumilast): very similar to the control groups
